We go through 1 molecule from patent US20260183370A1 (ASCENDIS PHARMA GROWTH DISORDERS A S, published 2026).

These are yes or no findings as the source states them, for the method shown. Some binding calls cover weakened binding; strength is not graded here.

The assay has as its target T1, NPR-C (natriuretic peptide receptor C), expressed on Hek293 cells (UniProt P17342).
T1 sequence (looked up): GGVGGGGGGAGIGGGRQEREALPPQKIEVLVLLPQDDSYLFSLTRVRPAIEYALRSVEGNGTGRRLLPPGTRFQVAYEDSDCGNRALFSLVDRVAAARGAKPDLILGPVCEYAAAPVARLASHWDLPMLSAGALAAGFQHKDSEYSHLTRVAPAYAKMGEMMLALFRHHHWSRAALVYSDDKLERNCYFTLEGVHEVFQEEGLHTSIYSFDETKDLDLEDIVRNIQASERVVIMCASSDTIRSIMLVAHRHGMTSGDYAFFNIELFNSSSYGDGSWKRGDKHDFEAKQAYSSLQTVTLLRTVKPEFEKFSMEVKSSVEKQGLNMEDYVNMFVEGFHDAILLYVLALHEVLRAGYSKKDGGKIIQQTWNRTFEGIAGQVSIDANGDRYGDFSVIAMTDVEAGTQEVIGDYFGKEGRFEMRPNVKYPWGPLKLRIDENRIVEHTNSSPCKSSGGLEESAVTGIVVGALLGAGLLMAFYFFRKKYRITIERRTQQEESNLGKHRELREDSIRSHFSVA
Nature of the assay: competition with fluorescein-labelled CNP-38 27d on NPR-C expressing Hek293 cells, flow cytometry; CNP-38 is the reference (IC50 not given). On the technique in general: A flow cytometer gives signals particle by particle.

For the molecule LQEHPNARKYKGANKKGLSKGCFGLKLDRIGSMSGLGC (disulfide bridge between Cys22 and Cys38) [CNP-38 (SEQ ID NO:24)], the binding result was “binds”.
